63 molecules from PubChem BioAssay AID493014 (National Center for Advancing Translational Sciences (NCATS), 2011) can be followed below.

The experiment can be described thus: qHTS Assay to Find Inhibitors of Chronic Active B-Cell Receptor Signaling. As to conditions: ABC-DLBCL IkBa-CBG/CBR reporter, luminescence ratio (green luciferase fused to IkBa over red control in TMD8 lymphoma cells), 4 h. The procedure, abridged:
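TMD8 ABC-DLBCL cells carrying doxycycline-inducible green luciferase fused to IkappaBalpha plus unfused red luciferase were exposed to compounds (up to 46 uM) for 4 hrs at 37C. Activity came from the overlap-corrected green/red luminescence ratio.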

Setting [1] is: measured here: CBR red luminescence, cell number.
The mark [2] stands for this setting: measured here: IkBa-CBG green luminescence.

Structures are written as SMILES. This is one part of the list. The main result of the screen is listed elsewhere. These columns were measured beside it and carry no call. Compounds called inactive in the main read-out are mostly missing here. Potencies come from curve fits of mixed quality, noted in brackets.

As usually defined, the AC50 is the midpoint of the concentration-response curve, whichever way the signal moves. As for `Cc1c(C(=O)Nc2ccc(F)cc2)oc2ccc(S(=O)(=O)N3CCCC3)cc12`, under setting [1], the AC50 was 2.59 µM [falling, partial curve, poor fit]. The same measure, in the same setting: as for `COc1ccccc1OCC(=O)Nc1oc(-c2ccccc2)c(-c2ccccc2)c1C#N`, the figure is 14.6 µM [falling, partial curve, poor fit]. Same read-out and setting: the figure for `O=[N+]([O-])c1ccc(O)c(/C=N/NC(=S)Nc2ccc(Cl)cc2Cl)c1` is 0.112 µM [falling, full curve, poor fit]; for `CCc1cc2c(SCC(=O)Nc3ccc(Cl)cn3)ncnc2s1` it is 1.64 µM [rising, partial curve]; for `COC(C(=O)Nc1c(F)cccc1F)c1ccccc1` (stereo unspecified) it is 3.55 µM [rising, partial curve, poor fit]. With `Cc1nnc(SCC(=O)NC(=O)Nc2ccc3c(c2)OCCO3)s1`, under setting [1], the AC50 was 35.5 µM [falling, single point].

For `CC(=O)c1ccc(N2CCN(C(=O)c3nn(Cc4ccccc4)c(=O)c4ccccc34)CC2)cc1`, the AC50 under setting [1] is 3.98 µM [falling, full curve].

In the case of `Cc1cc(S(=O)(=O)NCC(c2ccccc2)c2ccccc2)ccc1-n1cnnn1`, under setting [1], the AC50 was 8.2 µM [falling, partial curve, poor fit]. On the same count and under the same terms, as for `COC(=O)c1[nH]c2ccccc2c1NC(=O)CNC1CCCCC1`, the figure is 16.4 µM [rising, single point]; as for `Clc1cccc(N/N=C/c2ccncc2)c1`, 1.03 µM [rising, full curve, poor fit]; as for `N=c1n(CCN2CCCCC2)c2ccccc2n1CC(=O)c1cccs1`, 25.1 µM [falling, single point].

Consider `O=c1[nH]c2c(oc3ccccc32)c(=O)n1Cc1ccccc1`, for which the AC50 under setting [1] is 1.26 µM [falling, full curve]. Turning to `C=CCNC(=S)NCc1ccccc1`, under setting [1], the AC50 was 2.82 µM [falling, single point]. On the same count and under the same terms, as for `COc1ccc(OC)c(/C=C2\Oc3cc(OCC(=O)N4CCC(C(=O)O)CC4)ccc3C2=O)c1`, the figure is 39.8 µM [rising, partial curve, poor fit]. Regarding `COc1ccccc1CC(=O)NC1CCN(Cc2ccccc2)CC1`, the AC50 under setting [1] is 3.98 µM [rising, partial curve]. On the same count and under the same terms, the figure for `CC(Nc1c([N+](=O)[O-])c(=O)oc2ccccc12)C(Cl)c1ccccc1` (stereo unspecified) is 5.62 µM [falling, full curve, poor fit]. Same read-out and setting: the figure for `CNC[C@H](CC1CCCCC1)NC[C@H](CO)NCC1(c2ccccc2)CC1` is 7.94 µM [falling, partial curve]. Turning to `CC(C)(C)NC(=O)NC(=O)COc1ccccc1C#N`, under setting [1], the AC50 was 29.1 µM [falling, single point].

Take `O=C(Nc1nc2ccc(F)cc2s1)C1=NN(c2ccccc2)C(=O)CC1`: the AC50 under setting [1] is 25.9 µM [falling, partial curve, poor fit]. In the case of `N/C(=N\c1nc2ccccc2o1)NC(=O)C(Cc1ccccc1)N1C(=O)c2ccccc2C1=O` (stereo unspecified), the AC50 under setting [1] was 20 µM [rising, single point].

For the molecule `O=C(N/N=C/C(Cl)=C/c1ccccc1)c1ccncc1`, under setting [1], the AC50 was 31.6 µM [falling, single point]. Regarding `Cc1cc(C)c2nc3nc(C)c(C)cc3c(N)c2c1`, the AC50 under setting [1] is 7.94 µM [falling, partial curve]. Consider `O=C(CCCN1C(=O)/C(=C/c2cccs2)SC1=S)Nc1ccccn1`, for which the AC50 under setting [1] is 12.6 µM [falling, partial curve]. For `C1=C[C@@H]2CCN(Cc3ccccc3)Cc3cccc(c32)C1`, the AC50 under setting [1] is 29.1 µM [rising, single point]. On the same count and under the same terms, as for `C#CCn1c(=NC(=O)c2ccc(Br)s2)sc2cccc(OC)c21`, the figure is 9.2 µM [falling, partial curve]; as for `Cn1nc(C(F)(F)F)c2cc(C(=O)Nc3ccc(F)cc3)sc21`, 25.1 µM [falling, single point]. Same read-out and setting: as for `COCCNC(=O)c1ccc(CS(=O)(=O)c2ccc(C)cc2)o1`, the figure is 7.31 µM [rising, partial curve, poor fit]; as for `O=C(NCCCN1CCOCC1)c1ccc2c(=O)n(CCc3ccccc3)c(=O)[nH]c2c1`, 16.4 µM [rising, single point]. Regarding `CC1CCc2nc3ccc(S(=O)(=O)N4CCC(C(=O)NC5CCCC5)CC4)cc3c(C(=O)O)c2C1` (stereo unspecified), under setting [1], the concentration at half-maximal activity (AC50) is 16.4 µM [falling, single point].

Take `NS(=O)(=O)c1ccc(CNC(=O)c2cc(=O)c3ccccc3o2)cc1`: the AC50 under setting [1] is 35.5 µM [rising, single point]. As for `CCN(CC)c1ccc(/C=N/NC(=O)c2cc3ccccc3[nH]2)cc1`, the AC50 under setting [1] is 11.2 µM [falling, partial curve]. Same read-out and setting: the figure for `CC(=O)N1CCC(N(C(=O)Nc2ccc(F)cc2)C2CCCC2)CC1` is 1.64 µM [falling, partial curve, poor fit]; for `Cn1c(SCc2ccc(C#N)cc2Cl)nc2ccccc21` it is 2.82 µM [rising, full curve, poor fit]. As to `C[C@@]12C(=O)N(Cc3ccc(Cl)cc3)CC(=O)N1[C@H]1c3ccccc3OC[C@@H]1[C@@H]2c1ccccc1`, the AC50 under setting [1] was 16.4 µM [falling, single point] and the AC50 under setting [2] is 9.2 µM [rising, partial curve, poor fit]. Regarding `CSc1ccc(S(=O)(=O)NCC(=O)OCC(=O)N2CCC(C)CC2)cc1[N+](=O)[O-]`, the AC50 under setting [1] is 20.6 µM [rising, partial curve, poor fit]. Turning to `C=CCc1ccc(OCc2ccc(C(=O)OC)o2)c(OC)c1`, under setting [1], the AC50 is 13 µM [falling, partial curve, poor fit]. Same read-out and setting: as for `O=C(NC(=S)NC1CCCc2ccccc21)c1ccc(F)cc1` (stereo unspecified), the figure is 11.2 µM [rising, partial curve, poor fit]; as for `Brc1ccsc1-c1csc(-c2ccncc2)n1`, 1 µM [rising, partial curve, poor fit]; as for `O=C(N/N=C/C=C/c1ccco1)c1cccs1`, 5.01 µM [falling, partial curve]. Still for that read-out and setting: as for `CC(C)c1ccc(NC(=O)CCNC(=O)Cn2cnc3ccccc3c2=O)cc1`, the figure is 7.08 µM [rising, partial curve]. The same measure, in the same setting: as for `CC(=O)Nc1cccc(C(=O)Nc2nc(C)cs2)c1`, the figure is 7.94 µM [falling, partial curve, poor fit]; as for `Cc1cccc(NC(=O)NCc2ccc3[nH]c(C)cc3c2)c1`, 14.1 µM [falling, single point]. Turning to `O=C(O)c1cc2c(cc1NC(=O)c1c(F)cccc1F)OCCCO2`, the AC50 under setting [1] is 14.1 µM [falling, partial curve].

For `Cc1onc(-c2ccccc2)c1C(=O)NC(=S)NNC(=O)c1ccccc1O`, the AC50 was 29.1 µM [falling, single point] under setting [1] and 29.1 µM [falling, single point] under setting [2].

As for `CCC(=O)NC(=S)Nc1ccc(NC(=S)NC(=O)c2ccccc2)cc1`, under setting [1], the AC50 is 6.31 µM [falling, partial curve]. In the case of `O=C(O)Cn1c(O)c(C=Nc2ccccc2)sc1=S`, under setting [1], the concentration at half-maximal activity (AC50) was 6.51 µM [falling, single point]. Same read-out and setting: as for `C=CCC[C@@H](Cc1ccc(F)cc1)C(=O)OC[C@@H](NC(=O)[C@H](CC=C)CC(=O)NCCO)C(C)(C)C`, the figure is 20.6 µM [falling, partial curve]; as for `O=C(Nc1ccc(N2CCOCC2)c(Cl)c1)c1ccc(Cl)cc1`, 3.98 µM [rising, partial curve, poor fit].

Take `COC(=O)c1ccc(COc2ccc(C)c(C)c2)o1`: the AC50 under setting [1] was 6.31 µM [rising, single point]. Still for that read-out and setting: as for `CC1(C)Cc2nc3sc4c(N5CCCC5)nnnc4c3cc2CO1`, the figure is 14.1 µM [rising, single point]. As for `CN1CCN(Cc2cc(COCc3ccccc3)c3cccnc3c2O)CC1`, the AC50 is 2.82 µM [rising, partial curve, poor fit] under setting [1] and 1.41 µM [falling, partial curve, poor fit] under setting [2]. As to `CC1CCN(c2cc(=O)n(C3CCCCC3)c(=O)[nH]2)CC1`, under setting [1], the AC50 is 0.291 µM [rising, full curve, poor fit]. Take `O=C(NC(=S)NCc1cccnc1)c1ccccc1`: the AC50 under setting [1] was 23.1 µM [rising, partial curve, poor fit]. Same read-out and setting: the figure for `O=C(CCN1C(=O)CSc2ccccc21)Nc1cccc(C(F)(F)F)c1` is 0.92 µM [rising, full curve, poor fit]. With `CCOc1ccc2ccccc2c1C(=O)N1CCOCC1`, the AC50 under setting [1] is 13 µM [rising, partial curve].

For the molecule `CC(=O)c1ccc(NC(=O)NC2CCCc3ccccc32)cc1` (stereo unspecified), the AC50 under setting [1] was 5.62 µM [falling, partial curve, poor fit]. The same measure, in the same setting: the figure for `O=C(CSc1nccn(-c2ccc(F)c(Cl)c2)c1=O)NC1CCCC1` is 7.31 µM [falling, partial curve, poor fit]; for `O=C(COC(=O)/C=C/c1ccco1)NCc1ccccc1` it is 7.08 µM [rising, full curve, poor fit]; for `C=CCOC(=O)C1=C[C@@H](c2ccc3c(c2)OCO3)C[C@@H](OCc2ccc(CO)cc2)O1` it is 11.2 µM [rising, partial curve, poor fit]. For `CCOc1ccccc1NC(=O)NC1(C(=O)N2CCOCC2)CCCCC1`, under setting [1], the AC50 is 14.1 µM [rising, partial curve, poor fit]. Still for that read-out and setting: as for `O=C(Nc1ncc(Cc2ccccc2)s1)C1CCCO1` (stereo unspecified), the figure is 32.6 µM [falling, single point]; as for `Clc1ccccc1/C=C/c1nc(-c2ccccn2)no1`, 7.08 µM [falling, partial curve, poor fit]; as for `COc1ccccc1-c1cc(C(=O)NCc2ccccc2)c2c(-c3ccc(C)cc3)[nH]nc2n1`, 0.501 µM [falling, full curve, poor fit].
